Data on 1 compound can be found in patent publication US7407772B2, “Screening and selection methods for statin drug combinations” (Merck & Co., Inc., priority 2001, dated 2008).

SMILES strings stand for the structures.

One data set deals with human liver microsomes. As to the kind of experiment: Glucuronidation assay: statin glucuronidation in human liver microsomes. The settings on record: preliminary data. The data set is classed as in vitro ADME.
In data set [1] the test system is CYP3A (SVA, AVA); CYP3A and CYP2C8 (CVA). As to the kind of experiment: in vitro. The settings on record: human, human liver microsomes, pH 7.4. A general note: Liver microsomes are vesicles of endoplasmic reticulum, rich in cytochrome P450 enzymes.

On to `CC(C)c1c(C(=O)Nc2ccccc2)c(-c2ccccc2)c(-c2ccc(F)cc2)n1CC[C@@H](O)C[C@@H](O)CC(=O)O` [AVA, atorvastatin], for which the “Relative Contribution of glucuronidation to overall metabolism” value in the data set with human liver microsomes was 7. The compound further registered a microsomal CLint in data set [1] of 50 µL/min/mg.

One may read the microsomal CLint as the rate of metabolic loss divided by the concentration. A higher microsomal CLint goes with faster metabolism.
